Data taken from PMC10450186.

Chains of the proteins cited; added tags and fusions are not shown. A change or cut given only in a name is not applied to a line headed by its entry. A line that says so, or that is headed by a name, gives the form on record, which may keep a tag or linker.
pRPA (in vitro phosphorylated RPA) (human), one chain, as listed by the source, chain 2 of 3: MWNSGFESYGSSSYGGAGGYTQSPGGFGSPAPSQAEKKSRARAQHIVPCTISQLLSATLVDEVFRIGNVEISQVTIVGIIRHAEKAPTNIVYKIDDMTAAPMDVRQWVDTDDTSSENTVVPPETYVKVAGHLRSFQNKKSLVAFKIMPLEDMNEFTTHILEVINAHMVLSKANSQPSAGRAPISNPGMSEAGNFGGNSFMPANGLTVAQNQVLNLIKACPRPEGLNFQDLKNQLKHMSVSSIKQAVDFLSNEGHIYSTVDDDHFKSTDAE
pmRPA-S4/8D&S33D S4D,S8D,S33D,RPA32 (human), one chain, as listed by the source S33D S33D, chain 2 of 3: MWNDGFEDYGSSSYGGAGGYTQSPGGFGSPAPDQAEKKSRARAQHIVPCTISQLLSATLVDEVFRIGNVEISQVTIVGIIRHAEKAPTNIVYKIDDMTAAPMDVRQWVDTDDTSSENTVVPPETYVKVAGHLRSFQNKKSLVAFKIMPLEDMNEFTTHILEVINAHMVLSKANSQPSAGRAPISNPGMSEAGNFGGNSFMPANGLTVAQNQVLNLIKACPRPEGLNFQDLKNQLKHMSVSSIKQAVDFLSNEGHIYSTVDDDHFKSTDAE
pRPA (in vitro phosphorylated RPA) (human), one chain, as listed by the source, chain 3 of 3: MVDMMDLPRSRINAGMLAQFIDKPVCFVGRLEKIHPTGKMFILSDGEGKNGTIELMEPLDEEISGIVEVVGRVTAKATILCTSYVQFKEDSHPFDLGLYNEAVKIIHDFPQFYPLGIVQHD

Assays:
NSMF WT = target: T1, NSMF WT (UniProt Q6X4W1); experiment: EMSA; details: up to 3000 nM NSMF, EMSA: 50 mM Tris-HCl pH 7.5, 50 mM NaCl, 1 mM DTT, 0.01% Tween-20, 23°C, 10 nM labeled DNA, NSMF-DNA gels 1.5% agarose in 1xTBE at 4°C, recombinant protein
T1 sequence (looked up, limits assumed): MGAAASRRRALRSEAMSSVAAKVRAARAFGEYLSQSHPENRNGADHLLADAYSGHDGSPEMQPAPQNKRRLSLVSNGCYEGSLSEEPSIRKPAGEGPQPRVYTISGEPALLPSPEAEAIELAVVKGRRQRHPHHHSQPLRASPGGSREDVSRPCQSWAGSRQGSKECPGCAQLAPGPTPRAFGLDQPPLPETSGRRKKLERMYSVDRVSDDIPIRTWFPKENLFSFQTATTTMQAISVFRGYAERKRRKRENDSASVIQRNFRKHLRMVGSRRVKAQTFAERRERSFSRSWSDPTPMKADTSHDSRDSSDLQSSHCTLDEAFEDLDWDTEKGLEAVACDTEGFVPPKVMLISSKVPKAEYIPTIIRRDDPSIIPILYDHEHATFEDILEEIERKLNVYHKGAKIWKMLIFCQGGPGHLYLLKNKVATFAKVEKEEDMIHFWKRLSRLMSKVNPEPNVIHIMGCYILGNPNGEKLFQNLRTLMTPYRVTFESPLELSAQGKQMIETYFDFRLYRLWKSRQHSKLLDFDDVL

[1] = test system: pRPA (in vitro phosphorylated RPA) (human); experiment: EMSA; details: EMSA: 50 mM Tris-HCl pH 7.5, 50 mM NaCl, 1 mM DTT, 0.01% Tween-20, 23°C, 10 nM labeled DNA, NSMF-DNA gels 1.5% agarose in 1xTBE at 4°C, recombinant protein, protein details: 7xHis, label: 5' Cy5, single-stranded DNA
[2] = test system: pmRPA-S4/8D&S33D S4D,S8D,S33D,RPA32 (human); experiment: EMSA; details: EMSA: 50 mM Tris-HCl pH 7.5, 50 mM NaCl, 1 mM DTT, 0.01% Tween-20, 23°C, 10 nM labeled DNA; NSMF-DNA gels 1.5% agarose in 1xTBE at 4°C; recombinant protein; protein details: 7xHis; label: 5' Cy5; single-stranded DNA
[3] = test system: RPA heterotrimer WT (RPA70/RPA32/RPA14) (human); experiment: EMSA; details: EMSA: 50 mM Tris-HCl pH 7.5, 50 mM NaCl, 1 mM DTT, 0.01% Tween-20, 23°C, 10 nM labeled DNA, NSMF-DNA gels 1.5% agarose in 1xTBE at 4°C, recombinant protein, protein details: untagged, 7xHis version also made, label: 5' Cy5, single-stranded DNA
[4] = test system: RPA-eGFP heterotrimer (human); experiment: single-molecule photobleaching; details: +NSMF, recombinant protein, protein details: 6xHis, eGFP at C-term of RPA70, label: 5' biotin, single-stranded DNA
[5] = test system: pmRPA-S33D S33D,RPA32 (human); experiment: EMSA; details: EMSA: 50 mM Tris-HCl pH 7.5, 50 mM NaCl, 1 mM DTT, 0.01% Tween-20, 23°C, 10 nM labeled DNA; NSMF-DNA gels 1.5% agarose in 1xTBE at 4°C; recombinant protein; protein details: 7xHis; label: 5' Cy5; single-stranded DNA
[6] = test system: RPA-eGFP heterotrimer (human); experiment: single-molecule fluorescence; details: recombinant protein, protein details: 6xHis, eGFP at C-term of RPA70, label: 5' biotin, single-stranded DNA
[7] = test system: DBM-RPA W107A,F135A,RPA32 (human); experiment: EMSA; details: +NSMF, free DNA reappears; EMSA: 50 mM Tris-HCl pH 7.5, 50 mM NaCl, 1 mM DTT, 0.01% Tween-20, 23°C, 10 nM labeled DNA; NSMF-DNA gels 1.5% agarose in 1xTBE at 4°C; recombinant protein; label: 5' Cy5; single-stranded DNA

**Q.** Does “CTCGAGGATGTATATATCTGACACGTGCCTGGAGACTAGGGAGTAATCCCCTTGGCGGTTAAAACGCGGGGGACAGCGCGTACGTGCGTTTAAGCGGTGCTAGAGCTGTCTACGACCAATTGAGCGGCCTCGGCACCGGGATTCT / AGAATCCCGGTGCCGAGGCCGCTCAATTGGTCGTAGACA / GCCAAGGGGATTACTCCCTAGTCTCCAGGCACGTGTCAGATATATACATC [ssDNA gap]” bind (NSMF WT; label: Cy5 per Fig S3 legend, position not given)?
**A.** no binding

**Q.** Does “GCCAGGGACGAGGTGAACCTGCAGGTGGGCAAAGCAGCTGGCACGACAGGTATGAATCGCGTGGTAGAATTCGGCAGCGTCATGCGACGGC (double strand) [Homoduplex]” bind (NSMF WT; label: 5' Cy5 on strand 1)?
**A.** no binding

**Q.** Does “GCCAGGGACGAGGTGAACCTGCAGGTGGGCGGCTACTACTTAGATGTCATCCGAGGCTTATTGGTAGAATTCGGCAGCGTCATGCGACGGC / GCCGTCGCATGACGCTGCCGAATTCTACCACGCGATTCATACCTGTCGTGCCAGCTGCTTTGCCCACCTGCAGGTTCACCTCGTCCCTGGC / GCAGCTGGCACGACAGGTATGAATC [D-loop]” bind (NSMF WT; label: Cy3 on Oligo1, Cy5 on D-loop oligo)?
**A.** no binding

**Q.** Does “GCCAGGGACGAGGTGAACCTGCAGGTGGGCGGCTACTACTTAGATGTCATCCGAGGCTTATTGGTAGAATTCGGCAGCGTCATGCGACGGC / GCCGTCGCATGACGCTGCCGAATTCTACCACGCGATTCATACCTGTCGTGCCAGCTGCTTTGCCCACCTGCAGGTTCACCTCGTCCCTGGC [Bubble]” bind (NSMF WT)?
**A.** no binding

**Q.** Does “TATTCATTGTTTTACCTATTGTACCTTATTCTTAATTCATTTTACTAATCATTTACGAGT [60-nt ssDNA]” bind ([1]; two shifted bands)?
**A.** binds

**Q.** Does “TATTCATTGTTTTACCTATTGTACCTTATTCTTAATTCATTTTACTAATCATTTACGAGT [60-nt ssDNA]” bind [2]?
**A.** binds

**Q.** Does “TATTCATTGTTTTACCTATTGTACCTTATTCTTAATTCATTTTACTAATCATTTACGAGT [60-nt ssDNA]” bind ([3]; +NSMF, lowest-mobility band lost)?
**A.** binds more weakly

**Q.** Does “TATTCATTGTTTTACCTATTGTACCTTATTCTTAATTCATTTTACTAATCATTTACGAGT [Biotinylated 60-nt ssDNA]” bind ([4]; two RPA per DNA)?
**A.** binds more weakly

**Q.** Does TTTTTTTTTTTTTT [14-nt ssDNA (dT14)] bind [5]?
**A.** binds

**Q.** Does TTTTTTTTTTTTTT [14-nt ssDNA (dT14)] bind [2]?
**A.** binds

**Q.** Does TTTTTTTTTTTTTT [14-nt ssDNA (dT14)] bind ([3]; +NSMF, RPA completely released)?
**A.** no binding

**Q.** What does the source list for “TTTTTTTTTTTTTT [Biotinylated 14-nt ssDNA]”?
**A.** binding result ([6]; +NSMF, almost all puncta lost): no binding; binding result ([6]; +NSMF-ΔD2, not detached): binds

**Q.** Does “TTTTTTTTTTTTTTTTTTTTTTTTTTTTTT [30-nt ssDNA (dT30)]” bind ([1]; one shifted band)?
**A.** binds

**Q.** Does “TTTTTTTTTTTTTTTTTTTTTTTTTTTTTT [30-nt ssDNA (dT30)]” bind [7]?
**A.** binds more weakly

**Q.** Does “TTTTTTTTTTTTTTTTTTTTTTTTTTTTTT [30-nt ssDNA (dT30)]” bind [2]?
**A.** binds

**Q.** Does “TTTTTTTTTTTTTTTTTTTTTTTTTTTTTT [30-nt ssDNA (dT30)]” bind ([3]; 150 nM RPA +NSMF, lowest-mobility band lost)?
**A.** binds more weakly

**Q.** Does “TTTTTTTTTTTTTTTTTTTTTTTTTTTTTT [Biotinylated 30-nt ssDNA]” bind ([4]; one RPA per DNA)?
**A.** binds more weakly

The exact form of at least one protein or probe is not confirmed. For part of these data: No signal at the amounts used counts as a negative. For part of these data: Where a protein sequence is shown, tags need not be part of it. For part of these data: The comparison behind a weaker result is the experiment's own reference, which may not be listed here. For part of these data: At least one verdict rests on a figure or table, not on a statement of the authors.
